Source: PMC11651612
These are yes or no findings as the source states them, for the method shown. In cells and extracts the contact can be indirect. These calls come from enrichment with a bait or labelling near it, and not all partners need be listed.

T1: Cdc3-mCherry (C. neoformans) (UniProt J9VUF2)
T1 sequence: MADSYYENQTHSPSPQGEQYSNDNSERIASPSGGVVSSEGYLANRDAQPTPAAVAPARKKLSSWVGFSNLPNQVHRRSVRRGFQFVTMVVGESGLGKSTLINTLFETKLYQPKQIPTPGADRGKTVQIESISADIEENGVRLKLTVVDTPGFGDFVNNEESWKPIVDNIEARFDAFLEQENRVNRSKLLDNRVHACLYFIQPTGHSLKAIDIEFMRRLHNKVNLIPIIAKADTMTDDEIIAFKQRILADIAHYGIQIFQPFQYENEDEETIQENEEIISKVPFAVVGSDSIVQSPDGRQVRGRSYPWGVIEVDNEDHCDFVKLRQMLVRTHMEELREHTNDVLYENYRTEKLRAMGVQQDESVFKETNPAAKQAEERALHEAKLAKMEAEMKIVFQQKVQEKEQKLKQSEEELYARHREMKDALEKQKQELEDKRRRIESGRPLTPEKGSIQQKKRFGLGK


The binders below were run against T1, Cdc3-mCherry (C. neoformans) (assay: affinity purification with mass spectrometry; mCherry-tagged septin captured from C. neoformans lysate on RFP-Trap agarose, 4 h at 4°C, washed with TBS with 2 M urea pH 7.5; GeLC-MS/MS; untagged H99 as negative control; hits logFC >2 and adjusted p <0.001 (text-named hits <0.05); exponential cultures at ~25°C or shifted to 37°C for 2 h; N = 5).

Binder	binding
Cytochrome c oxidase subunit (protein, UniProt J9VPH6 1-82) MAEDKTFVLQTTGFDARFPNQNQTKHCWQNFVDYHKCVNAKGEEFAPCQQFKKAFRSLCPNDWVGQWNEQIEAGTFPASLKP	binds
DASH complex subunit DAD3 (protein, UniProt J9VIU7 1-112) MSINTVNPYENNSQLSQLEQELLWEFAKLSDKVKRAASLAKLTAESPNESLLAELRTLEKRMGLVLTLVKASVWAVIVDSQAAEEARQQQSAESAPEISHNETRSWDDSIMQ	binds
Hsp90 chaperone protein kinase-targeting subunit (protein, UniProt J9VJV8 1-504) MPLNYSKWDMLELSDDSDIEEHPNVDKKSMIRWKQRDIHEKREARKLLISKLKSELSLNSVLRPRIETIISGLSSSGLDHYRAVQRRMKEDPSPEKPETGAPNQPTYDMMLSQLLSDVFREGAWLVEGGKVEGNGVLYNGKKVDDNTGLPDWATAEVPEGKKELLAEKLEQRLRWHVSELNRRDEQVKKEIEKEEGELKKKITSDDIHEGWSSSKIAPPKPSVWDETPKPKKGKKTEKVETIEVLNPKASSSAAPVAPATEDTDDEEDFGPLSPAGRAFAQIPLGDFEKSYDFIKNDSSVLSSSTHDSLLAEAFDAERRGDKSLAMRCVHQSLLVNYCRQLGKDGVGLFFQKMIQKNPKSITMFNEDFQRTYNRIATRTREILAEEAAAPSGEREQIQLVATDPNMTIAFNLPDGPPPEKILLEGEGVEELDMEQVRAWLQQKWDIFKSFPPRFQEALKTENLDKVNKVLGDMKVPEAEKIVELLQEGGMLSFSEKGVRDMTNQ	binds
Thioredoxin (protein, UniProt J9VKF2 1-104) MVKAIESYDEWKTLTSGSDVVVVDYWATWCGPCKMISPHFAKLEGKFPNVKFAKVDVEEQEDIAKEAQIKAMPTFVAYKDGKVIETVTGAVPAKINALLDKVAA	binds
Heat shock protein 9/12-domain-containing protein (protein, UniProt J9VJQ8 1-70) MSDAGRQSLADKASSSMKPDSEKSYVEQASDFISGKLDSAASAVQPQQEKSTTQKIGDAVSGDNRNRDVA	binds
Inositol hexakisphosphate and diphosphoinositol-pentakisphosphate kinase (protein, UniProt J9VSQ9 1-1117) MSMLPPKSPSVKRFTQNTEKRPTSPSPSSLLMNLNTPSLAAPKQPKVVLGVCAMDVKARSKAMREILTRLVDIEKGGLEVKIFGDVVILEEDISHWPPVDVLISFFSTDFPLPKAISYTQLPNRPPPISINSLSMQSLLWDRRLVLAILDHIGVPTPSRAEISRDGGPRIPRSLRRQVRRELGLVLPGPKAKDEDEWGEVVIPEKWRGKQRKDPVPKATEVILREDGDAILVGDHVIEKPFVEKPVDGENHNVFIYYKGGGGRRLFRKVGNKSSEYDPNLYHPRTIGSFIYEEFINVDNAEDIKVYTVGSKFSHAETRKSPVVDGLVRRNADGKETRFITPLSEAENQYARDVVEAFGQRVCGFDLLRCEGGSRSMVIDVNGWSFVKGNQAYYDKAAEILSGVCQIARERKVQGIQAGLASTTTIDDPSGGSTTSTLRATVTVLRHADRTPKMKLKFSFPAHEAWSQPFLRLLRGHREEIILRDTRQLQYILAAAEESSQTPGITGEQLLKLSQIKEALGKKMSFPGTKAQLKPSFVKKKGDKNEKKDKKKNDEDKEDEGDVTETEGRKKVNDWLRKGESAQAANMDSTLLTEPPMSATGSVDAIPQSSEPRSPEPETTQDETVKDKHAGCVSDPDIPEGLEKMQLVVKWGGESTHSSRYQSRDLGDAFKKDIMIMNKDVLNNVKIYTSSERRVINTAQIFAHALLGVEGSSSSSASSIANARNPPEQGPQISHLIQRRDLLDDNNAAKDLCTDAKKKLKMLLRTGETERRPDLAWPKSFKKEPVEVVSDVIEQLTELRAIMRRNYENGNVEKIPQQRWCSGDSPWLFKERWEKIFDDWVGVKQEKFDPSRVSELYDSIKYDSLHNRTFLFAVFDPAGKGQASKAGAPNQDRRLHDLFGRAKALFDLVAPQEYGFDAEAKEEIGVLTSLPLLRKVWEDLDEAKTTGKSLACFYFTKESHITTFVHLLLASGLPFTNVRIPELDYCSHCTIELWEKSTGSGQKDFSIRLSISEGAHSPAVLDSNVDARHSLTVQPRKKLSSHIDYELARQCFSKHFNKGLSFSTTPLEGDEVYLKKSIEDESVLPLSSLHHKAGDETPRMISSASSDRSHPGASDGGW	binds
U3 small nucleolar RNA-associated protein 5 (protein, UniProt J9VI77 1-714) MAPRQPVAGPSKPKHSQQPAIQSPPAPAAVSAFNSTRTLFALASPVLGQADKVQVWDVAGDRVISEWEVVGASKASSVCFTTVPSDAASTKKKRRKSGSGRGAEEEVVLVTTSKSQLLVLSTKQTEPLRTLDLPASVTAAWSEERASILATASSLLVLSADASSISHTFTLPSSLSSPTAITILPTSTAESLHVLVASSLVVTLHLSLASQEVTFVSSPLPASTSSISSLLPLPLTEQGASFLVVSEDDRTISQYTLTSPQSPARLSYRYASPTLSSAHSITADPDLLAVLHESGEISLFRLPSELDLSRPQSDAKPSTVKIVEGKEERTARLCRVAFAPVDDGASGALLCGRLTGGGRVKWSRAIYELPEGGLRPVTVVKVEAQELVGASSVSETVPVQRYVAPNTVNEAAPEDVDEAPVSQLPSDVNMAELSLGERMLAPDSQEADTGSKPAASSAGVTLDGPVNAASLTRVLVQALHTSDPALLTLCLSHRNPVLIRNTIRKMPPQLALPLLKACVERLGQGKGANKRGGGRGAAQNEQQGRGTVEWVKGVLVERGSILMTIPSLPVHLASLSQLLQNRLELNQPLQTLSGRLDLALAQITMRRIAAEQALENAKNGGQKGGEGEIYVEGESEDEDEIIEVGEDGGEIEDIDMGGLSESDESEEEEEEEEDEDEDEESDDDPLDSGSDNDLLDLQAEESGSDDEEESEDED	binds
protein-ribulosamine 3-kinase (protein, UniProt J9VPD5 1-303) MPTITQPIANIFKAAHIPANELSIAASTSGFIITHSTTGKQYFTKTDRNVPQMRGEVASLLAMSKTSTGLVPEVLGFEVSPDGKEATMVTQWFDLSSARGGHTQRGLGSKLAQMHMPPPEGTEGYEGKYGFPVPTHCGATEQDNTWEESWEVFWRDRRLGNLVNRIGDKEINALWEDMKRRAVPLLLHSFSPAPQPVILHGDLWSGNAGYDETTSSPVIFDPASYYGHNEADLGITRMFGGFSYEFYDEYHQVHPRSSPYYNERQKLYELYHHLNHTYMFGGSYKHGAMGIMKSLIEWAEKEE	binds
U4/U6 small nuclear ribonucleoprotein PRP4 (protein, UniProt J9VQ13 1-511) MDLDDLITDNTYQLGGIDDERERAQNAAIIEELERKKRLRKLAVPTDDKKVRERLRAYGEPITLFGEGPGDRRDRLKYVQEQIEQAKGEGGMVVDESDESSDEDEEGEFYTEGSDDLLEARRKIARYSLSKARARIARQRREYSVPLGKLVNARKELFKELKSFNNFGSQFGDDRPLSTIRFSPSSQYILTTSWTGDTKLWDLPNLNPISTKRGHTEKVGGAAWHPFATVGASEEAVNFATGGGEGDVKLWSLSGEKPLSTLSGHTSRVGRLAFHPSGAYLASAGFDGTWRLWDVESSKELMTQEGHSKEVYAVGCQDDGALIASGGFDAIGRVWDLRTGRTAMVLDGHVKEILAMDFAPNGYQIATGSGDDTVRIWDLRALKTQYIIPAHKSSVADVKFFRSSGELPPIGIQGLPLSSRAAEVDGMDVDKSNDTEDKEKEERLSRSGMFLVTAGFDCNVRIWSADEWNMVRNLSTDAGKVMSVDVSGDGKFVASASYSRSFHLFGGENSL	binds
NAD-binding Rossmann fold oxidoreductase (protein, UniProt J9VMJ0 1-400) MSTNVALLGSGVFAQASYVPALLSLARFKTLVLHTIWSRSESSAQTLHAKYTSVGAPSPQLLYGDDGLEAVLANKEIDAVLFVLPITKQPDLVRKAWKAGKHVLSEKPLARDVKEAVELIEEYERDYKPKGLIWRVAENYAHEPALRFAGDILSKTPNLGPVLFWDIKFTAYVEDGSKYHATGWRTIPDYQGGFLLDGGVHWAALLRTVLPPAALPASFIGFASLHRTHLLPHDTIQAIALPDPSATIPPNGPKSKLDSAVYTEKDLASQPGQSTPRGQITFSFANPDMPPEGRTSNGLVVTLLNGVLTIEQTFDRRFITTLIPAEGSGLEKKTITTKQVGVEVEIEMFVNAVQAIKEGRENKEENFGEPRGALWDLSVLEAMLKSDGKEINLESLVKGE	binds
Tip120-family protein (protein, UniProt J9VQT6 1-1266) MSRTTTVPLNSQLPGLLEKMRSIDPDYRIMALVDLNKELNRTLAPQPSLTRRPDPHYTDDYTESQLVEMVLKLLADTNGEVKSAAVSCISLMVKKPRPSSLSKIINSLLEDVSSDNDERRDTSCLALKNVVLEMPSESQQVLSDIERIVTRVFKLFTNEIHPQIASELLQILTDLFVRFSPNVASSATIQSTALSSLIQILNNARPAIRKRAVPTLSSLIATSPKLFNEDLEKEIVNGVSQSGESSRIWMGTVASLARGKSAGSIGKLVNEGRLAELILNQTKNDDVETVEAALTALEALVLKCPSEMFPHISSITQRSLVLVKYDPNYVDLEDDDDDDVDMASDAEDDEEDEYGDADYSDEDDDSWKIRRSSAKLLRALIFTRPDLLSELYNSVTPVLISRFAEREESVRLEVLAAFEMLLRQTATSRSTDLATGGRNKRKRSEGMDEDYVSDDGPISSLQSYLPQLSKAILTQLSSKSVPTRQQSFNLLRQAATALGGGLDDSADPICTAAASALRTIDSATSSSLAIATLSFLAVFFDTHSARTFASHLGELVPAIVRCMKDKLQRISFEAFDTASSLTKSLRPAGSSASVSGDFSIPIQEVFLATTQVLGDNSVDGDVREKALATLGSVLVQSGDLFASSFSTSLPLITNRLGSESTASTAIVVIGQLAASPQCKGPEFEGWLLQILPEVVVALRRTKRGTSKNVEFTCLLSIIERVGKALPVDLAEGLIIELTPVIDTPMALQTIAIVLTHQPSARPTVDAQLYPKILTILKTSLNPHLVDALAEFFTAYAASLNSPERAVQLVQELSNNLGSGKRDSLPDATNGGTAAWGTTAKCVGGVIKGEIASAGESLALFEDVVKGKNVKETDAYLALLCIGEIGRIVNLSTKIDLFEIILSFFKHDSEEVRSAAAFAAGNLAVGAPAVYVPAIITRISAAKDESERLLLLHAIKEVILHSPSAQLESLADTLWAPLFSATDATPASKADSTGGDGIRNVIAACIGKLTTTVPAKFLPQLQQLLYSSPSNRAIVAAAVRYTFIDTSNGYDELIAPIIVEFLSLMKDENLIVRRLSLASLNAALQNKPHLIVDKLDILQPLLYQETYVKKELQREVTMGPWKVIEDDGLENRKTAYETMYTLLGACFSKIDLLTFTARVLVSLSDVNEVKVLGLMLLLRLGQVSPESVIPRLDEVVESLKGMMKDVEVKDDTIKQDLERKAEMQRSTLRTVVPLYKSSTPQQAPAFHAFVENLLANEKWKEFREYQA	binds
